Measurements: US20030022837A1 (Stanford University, published 2003)

Key:
Skp1 (yeast two-hybrid) [1] = test: yeast two-hybrid screen of a Xenopus oocyte library
Skp1 (yeast two-hybrid) [2] = test: yeast two-hybrid screen
Cdc20 WD repeat domain [3] = test: yeast two-hybrid
[4] = biological target: Cdc20(1-158), in vitro translated; test: yeast two-hybrid
Cdc20 WD repeat domain [5] = test: in vitro binding assay
[6] = biological target: Cdc20(1-158), in vitro translated; test: in vitro binding assay (GST pull-down of 35S-labeled IVT Cdc20(1-158))

B1: Xenopus Emi1 (Early Mitotic Inhibitor 1), full-length wild type (other)
chain: MMCGFASNQSPKKLSSKKSSATNVHLEISPVKHHPPCKVYENVQGSCLDSAICTTVAKCADLTDDLPVHNKENLLHRLNDLETNSYEEYSALQDSGYSSILQNDSPCQDETDRKVSDIQVRETPKNFMSYQRPFHTLSKINLPILRFEEAVCSTLKKMRKTNKKIDWNAVDVVCGGNYGLEHLIGKSMGLERFDILAELFHRDFKHLLTKILRHLSAMDLINVISVSTTWRKLLQKDNWAYNAYKLGCKELCEKRAKVSSHTATRDESLCRVPLASVQKVAASSLCTSKKQSKNKNGGLSCNRLAEFIEVAQTLKNDQSLKVCVDCGSPAKHDPCLHRAICTRESCKLDFCTRCSCKYHFSKSCLMSKPGSYRIPSEPLPGSKKSKQNLRRL
notes: 392 residues; also called xEmi1; Emi1p
binding (Skp1 (yeast two-hybrid) [1]): binds
binding (Skp1 (yeast two-hybrid) [2]): binds
binding (Cdc20 WD repeat domain [3]): no binding
binding [4]: binds

B2: GST-Emi1 (Xenopus Emi1 fused to glutathione S-transferase) (protein, not shown: a dimerising Fc or GST)
chain: B1 chain
binding (Cdc20 WD repeat domain [5]): no binding
binding [6]: binds

Results are given in words; binding and its absence hold for the method and conditions named. For part of these data: Binding can be weak; no strength is given. For part of these data: Binding seen in cells or lysates may run through a third protein. For part of these data: Where a sequence is shown, tags or fusion partners need not be part of it.
